Test results reported in the supplement of paper PMC10735217.
Structures can show the parent of a compound that is named as a salt. The list shows a part of the results. This data set is noisy: repeats of one test often differ as much as different tests do.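 The human kidney-derived cells carry a stably integrated construct of eight TEAD-binding elements driving luciferase, read by luminescence in a drug-repurposing library screen. A compound counts as a hit when its signal is more than five robust Z scores above the plate mean.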

System: HEK293A TEAD-LUC reporter
Experiment: TEAD-luciferase reporter activity (YAP activation), robust Z score vs plate; higher = stronger YAP/TEAD activation
Details: 24 h

Row | Compound | TEAD-luciferase reporter activity (compound concentration: 200 nM) | TEAD-luciferase reporter activity (compound concentration: 2 uM) | TEAD-luciferase reporter activity (compound concentration: 10 uM)
1 | COc1ccc(Br)cc1NC(=O)Nc1cccc2c1ccn2Cc1ccnc(N)c1 | inactive: -1.55 | inactive: -0.622 | inactive: -1.21
2 | CCNC(=O)[C@@H]1CCCN1C(=O)[C@H](CCCNC(=N)N)NC(=O)[C@H](CC(C)C)NC(=O)[C@@H](COC(C)(C)C)NC(=O)[C@H](Cc1ccc(O)cc1)NC(=O)[C@H](CO)NC(=O)[C@H](Cc1c[nH]c2ccccc12)NC(=O)[C@H](Cc1c[nH]cn1)NC(=O)[C@@H]1CCC(=O)N1 [Buserelin (Acetate)] | inactive: -1.13 | inactive: -0.0751 | inactive: 1.6
3 | CC(C)OC(=O)[C@H](C)NP(=O)(OC[C@H]1O[C@@H](n2ccc(=O)[nH]c2=O)[C@](C)(F)[C@@H]1O)Oc1ccccc1 (stereo partly drawn) [Sofosbuvir] | inactive: -1.78 | inactive: -0.601 | inactive: -2.37
4 | CCOC(=O)C1CCN(c2nc(N(C)S(=O)(=O)c3ccc(OC)cc3)ccc2[N+](=O)[O-])CC1 | inactive: -0.631 | inactive: -1.06 | inactive: 1.15
5 | Cc1nc(N)nc(N)c1C12CC3CC(CC(C3)C1)C2 | inactive: -0.822 |  | inactive: -0.064
6 | Cc1cc(C(=O)Nc2ccc(-c3ccccc3S(N)(=O)=O)cc2)n(-c2cccc(C(=N)N)c2)n1 | inactive: 0.749 | inactive: -0.752 | inactive: -0.108
7 | CSCC[C@H](NC(=O)[C@@H]1CCCN1C(=O)CNC(=O)[C@H](CCCCN)NC(=O)[C@H](Cc1cnc[nH]1)NC(=O)[C@H](CO)NC(=O)[C@H](CC(C)C)NC(=O)[C@H](CCCNC(=N)N)NC(=O)[C@@H]1CCCN1C(=O)[C@H](CCCNC(=N)N)NC(=O)[C@@H](N)CCC(N)=O)C(=O)N1CCC[C@H]1C(=O)N[C@@H](Cc1ccccc1)C(=O)O [Apelin-13] | inactive: -1.56 | inactive: 0.315 | inactive: -1.19
8 | CN(C)CCC=C1c2ccccc2C=Cc2ccccc21 [cyclobenzaprine HCl, Aptalis] | inactive: -0.236 |  | inactive: 0.63
9 | CN(C)CCC=C1c2ccccc2C=Cc2ccccc21 [cyclobenzaprine HCl] |  | inactive: 0.618 | 
10 | CC(NC(=O)C(CSC(=O)c1ccccc1)C(C)c1ccccc1)C(=O)O (stereo not drawn) [Mixanpril] | inactive: -1.64 | inactive: -0.0786 | inactive: -1.57
11 | CCCNCC(COc1ccccc1C(=O)CCc1ccccc1)OC (stereo not drawn) | inactive: 0.882 | inactive: 0.326 | inactive: -1.12
12 | O=c1oc2cc(O)ccc2c2oc3cc(O)ccc3c12 |  | inactive: -1.2 | inactive: -0.969
13 | CN(C)N(C)C(=O)[C@@]1(Cc2ccccc2)CCCN(C(=O)[C@@H](Cc2c[nH]c3ccccc23)NC(=O)C(C)(C)N)C1 [anamorelin hydrochloride] | inactive: -1.57 | inactive: -0.359 | inactive: 2.04
14 | O=C1NCc2ccccc2CC12CCCCN2CC1CC=CCC1 (stereo not drawn) | inactive: 3.11 |  | inactive: 0.767
15 | CN[C@H](CC(C)C)C(=O)N[C@H]1C(=O)N[C@@H](CC(N)=O)C(=O)N[C@H]2C(=O)N[C@H]3C(=O)N[C@H](C(=O)N[C@H](C(=O)O)c4cc(O)cc(O)c4-c4cc3ccc4O)[C@H](O[C@H]3C[C@](C)(N)[C@@H](O)[C@H](C)O3)c3ccc(c(Cl)c3)Oc3cc2cc(c3O[C@@H]2O[C@H](CO)[C@@H](O)[C@H](O)[C@H]2O[C@H]2C[C@](C)(NCc3ccc(-c4ccc(Cl)cc4)cc3)[C@@H](O)[C@H](C)O2)Oc2ccc(cc2Cl)[C@H]1O [Oritavancin (diphosphate)] | inactive: -1.3 | inactive: -0.825 | inactive: 2.81
16 | CC(=O)NCCCCCCNC(C)=O [Hexamethylenebisacetamide] |  | inactive: -0.2 | 
17 | CC(=O)NCCCCCCNC(C)=O | inactive: 0.788 |  | inactive: 0.207
18 | c1ccc(C(c2ccccc2)N2CCN(Cc3ccc4c(c3)OCO4)CC2)cc1 | inactive: -0.0324 | inactive: -0.408 | inactive: -1.19
19 | CN1CC(=O)N2[C@H](c3ccc4c(c3)OCO4)c3[nH]c4ccccc4c3C[C@@H]2C1=O | inactive: -1.03 | inactive: -0.949 | inactive: 0.212
20 | O=C([O-])P(=O)([O-])[O-] [Foscarnet sodium] | inactive: -0.165 | inactive: 0.191 | inactive: 4.01
21 | COc1cc2c(cc1OC)C(c1cc(OC)c(OC)c(OC)c1)NCC2 (stereo not drawn) | inactive: 0.698 | inactive: -2.01 | inactive: -0.303
22 | Cc1cc2nc3c4cc(Cl)ccc4n(CC(=O)NCCN(C)C)c3nc2cc1C [Rabeximod] | inactive: 0.745 | inactive: -0.409 | inactive: 2.86
23 | COc1ccc(C2CCN(CC[C@H]3CCOc4ccccc43)CC2)cc1OC | inactive: 1.88 | inactive: 0.116 | inactive: 2.15
24 | CCSC(=N)N [S-Ethylisothiourea hydrobromide] | inactive: -1.33 |  | inactive: -0.877
25 | CCSC(=N)N |  | inactive: -0.0875 | 

Not a retest: an excerpt of the list.
Row | Compound | TEAD-luciferase reporter activity (compound concentration: 200 nM) | TEAD-luciferase reporter activity (compound concentration: 2 uM) | TEAD-luciferase reporter activity (compound concentration: 10 uM)
7 | CSCC[C@H](NC(=O)[C@@H]1CCCN1C(=O)CNC(=O)[C@H](CCCCN)NC(=O)[C@H](Cc1cnc[nH]1)NC(=O)[C@H](CO)NC(=O)[C@H](CC(C)C)NC(=O)[C@H](CCCNC(=N)N)NC(=O)[C@@H]1CCCN1C(=O)[C@H](CCCNC(=N)N)NC(=O)[C@@H](N)CCC(N)=O)C(=O)N1CCC[C@H]1C(=O)N[C@@H](Cc1ccccc1)C(=O)O [Apelin-13] | inactive: -1.56 | inactive: 0.315 | inactive: -1.19
8 | CN(C)CCC=C1c2ccccc2C=Cc2ccccc21 [cyclobenzaprine HCl, Aptalis] | inactive: -0.236 |  | inactive: 0.63

Remaining list, next part.

Row | Compound | TEAD-luciferase reporter activity (compound concentration: 200 nM) | TEAD-luciferase reporter activity (compound concentration: 2 uM) | TEAD-luciferase reporter activity (compound concentration: 10 uM)
26 | COC(=O)c1ccccc1-c1c2ccc(=N)cc-2oc2cc(N)ccc12 | inactive: -2.42 | inactive: 1.3 | inactive: 4.81
27 | COC1/C=C/OC2(C)Oc3c(C)c(O)c4c(O)c(c(/C=N/N5CCN(C)CC5)c(O)c4c3C2=O)NC(=O)/C(C)=C\C=C\C(C)C(O)C(C)C(O)C(C)C(OC(C)=O)C1C (stereo not drawn) [rifampicin, AlphaRx] | inactive: -1.09 |  | inactive: -0.488
28 | COC1/C=C/OC2(C)Oc3c(C)c(O)c4c(O)c(c(/C=N/N5CCN(C)CC5)c(O)c4c3C2=O)NC(=O)/C(C)=C\C=C\C(C)C(O)C(C)C(O)C(C)C(OC(C)=O)C1C (stereo not drawn) [rifampicin] |  | inactive: 1.16 | 
29 | C[N+](C)(C)CCOC(=O)CCCC[C@H]1CCSS1 | inactive: -1.65 | inactive: -0.0798 | inactive: 0.953
30 | COc1cc(N)c(Cl)cc1C(=O)N[C@@H]1CCNC[C@@H]1OC [Ticalopride] | inactive: -2.23 | inactive: -0.224 | inactive: 0.639
31 | COc1cc(Cl)ccc1C(=O)NCC(C)N(C)C (stereo not drawn) | inactive: -1.65 | inactive: -1.35 | inactive: 1.05
32 | CCOc1ccccc1OCCN[C@H](C)Cc1cc(C(N)=O)c2c(ccn2CCCOC(=O)C(C)(C)C)c1 | inactive: -0.277 | inactive: 1.17 | inactive: 3.05
33 | N#Cc1ccccc1CN1CCCC12Cc1ccccc1CNC2=O (stereo not drawn) | inactive: -3.16 |  | inactive: 1.94
34 | COc1ccc(CC(C)NCC(O)c2ccc(O)c(NC=O)c2)cc1 (stereo not drawn) [Formoterol] | inactive: 0.277 |  | inactive: 0.196
35 | COc1ccc(CC(C)NCC(O)c2ccc(O)c(NC=O)c2)cc1 (stereo not drawn) [Arformoterol tartrate] |  | inactive: -1.48 | 
36 | COc1ncnc2c1nc(N)n2Cc1cc(Br)cs1 | inactive: 0.372 | inactive: 0.633 | inactive: 1.11
37 | CN[C@@H](C)C/C=C/c1cncc(OC(C)C)c1 | inactive: -1.84 | inactive: -1.61 | inactive: 0.108
38 | CC(C)(C)NC(=O)CN1CCC(CNC(=O)c2cc(F)cc(Cl)c2)CC1 | inactive: -0.583 | inactive: -0.779 | inactive: -1.14
39 | CCCCCCc1cc(S(C)(=N)=O)cc2c(=O)c3cc(C(=O)O)ccc3oc12 (stereo not drawn) [sudexanox] | inactive: -2.22 | inactive: -0.405 | inactive: -0.456
40 | CCCCc1nc2ccc(C(C)(C)OC)cc2c(=O)n1Cc1ccc(-c2ccccc2-c2nn[nH]n2)cc1 | inactive: -0.728 | inactive: -0.26 | inactive: 0.754
41 | COc1cc2c(cc1OC)CC(=O)N(CCCN(C)C[C@H]1Cc3cc(OC)c(OC)cc31)CC2 [ivabradine, Jiangsu Hengrui Medicine] | inactive: -0.723 | inactive: -0.913 | inactive: -3.02
42 | COc1ccc(-c2ccc3c(N4CCOC[C@@H]4C)nc(N4CCOC[C@@H]4C)nc3n2)cc1CO | inactive: -1.06 | inactive: -2.35 | inactive: -0.343
43 | N=C(N)NCCC[C@H](NC(=O)[C@@H]1C[C@@H](O)CN1C(=O)[C@@H](N)Cc1ccc(F)cc1)C(=O)NCC(=O)N[C@@H](Cc1c[nH]c2ccccc12)C(N)=O | inactive: -2.65 | inactive: -1.14 | inactive: 3.29
44 | CN(C)CC[C@H](CSc1ccccc1)Nc1ccc(S(=O)(=O)NC(=O)c2ccc(N3CCN(Cc4ccccc4-c4ccc(Cl)cc4)CC3)cc2)cc1[N+](=O)[O-] | inactive: 2.64 | inactive: -1.21 | inactive: -0.0837
45 | Nc1ccc(S(=O)(=O)Nc2cnc3ccccc3n2)cc1 | inactive: 0.401 | inactive: -0.699 | inactive: 0.657
46 | CC(C(=O)O)c1cccc(C(=O)c2ccccc2)c1 (stereo not drawn) | inactive: -0.596 |  | inactive: 1.02
47 | CC(C(=O)O)c1cccc(C(=O)c2ccccc2)c1 (stereo not drawn) [dexketoprofen trometamol ER] |  | inactive: 0.347 | 
48 | COc1ccc(CN(CCN(C)C)c2ccccn2)cc1 [Mepyramine Maleate] | inactive: -1.55 | active: 5.14 | inactive: 2.58
49 | COC(=O)C[C@H]1C(=O)N(CC(=O)O)CCN1C(=O)CNC(=O)c1ccc(C(=N)N)cc1 | inactive: 0.111 | inactive: -0.464 | inactive: 3.37
50 | Cc1ccc(CCCO)c(NCc2ccc3nc(NCCCN4CCOCC4)n(Cc4nc(C)ccc4O)c3c2)c1 | inactive: 0.148 | inactive: -1.37 | inactive: 1.56
